Measurements taken from patent US20060223879A1, “Non-steroidal farnesoid x receptor modulators” (priority 2002, published 2006).
Some results were stated once for a whole list of compounds, not compound by compound.

Target: T1, FXR (Homo sapiens, UniProt Q96RI1)
T1 construct: using a full length FXR on a natural response element; expressed in transfected cells
T1 sequence (Q96RI1 1-486): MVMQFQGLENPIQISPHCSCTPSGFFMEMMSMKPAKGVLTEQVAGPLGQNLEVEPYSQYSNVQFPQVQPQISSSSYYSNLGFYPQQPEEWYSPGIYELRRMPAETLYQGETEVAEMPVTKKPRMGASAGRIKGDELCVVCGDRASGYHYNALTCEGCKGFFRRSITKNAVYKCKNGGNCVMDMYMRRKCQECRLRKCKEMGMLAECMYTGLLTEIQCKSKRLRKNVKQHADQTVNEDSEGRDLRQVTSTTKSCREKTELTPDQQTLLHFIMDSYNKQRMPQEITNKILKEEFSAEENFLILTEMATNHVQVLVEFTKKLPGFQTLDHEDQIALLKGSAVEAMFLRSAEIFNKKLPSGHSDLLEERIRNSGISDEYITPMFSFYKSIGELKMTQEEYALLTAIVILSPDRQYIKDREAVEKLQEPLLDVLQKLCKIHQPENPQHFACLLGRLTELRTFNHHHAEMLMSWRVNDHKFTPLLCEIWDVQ
Experiment: cell-based transcription assay, FXR responsive promoter linked to a luciferase reporter
Excerpt: In addition to ensuring that only cell permeable compounds were selected for further optimization, this approach allows for the detection of FXR activation in a natural system (i.e., correct folding of the protein and in the presence of a complete compliment of co-activators and co-repressors).
The feasibility of creating high throughput screens (XIS) for ORs was explored using FXR as a candidate orphan receptor (OR) with a known activator, chenodeoxycholic acid (CDCA) as a ligand. The screen is based on the co-transfection of a full-length receptor with the reporter vector containing a natural hormone response element under a minimal eukaryotic promoter. […] Using this 384-well format, the high throughput screening (HTS) approach to FXR as a candidate OR was employed. […] A central question in the feasibility studies is whether this library is suitable for screening for nuclear receptor ligands. Samples of this library were first reformatted into a 384-well format and then subjected to the FXR cell-based assays described above and assessed for FXR-mediated transcriptional activity. Cells were exposed to approximately 10 μM of sample for 18 hrs prior to washing and luciferase analysis.
EC50 values were determined with Prism 3.0 software via the activity of the subject compound in the previously described cell based assay.

| Structure (SMILES) | FXR activation (in words) |
| --- | --- |
| COC(=O)C=Cc1cccc(N(Cc2ccc(C=CC(=O)OC(C)(C)C)cc2O)C(=O)C2CCCCC2)c1 [Compound 161] | very low biological activity |
| COC(=O)C=Cc1cccc(N(Cc2ccc(C=CC(=O)OC(C)(C)C)cc2OC)C(=O)C2CCCCC2)c1 [Compound 162] | very low biological activity |
| COC(=O)C=Cc1cccc(N(Cc2ccc(C=CC(=O)OC(C)(C)C)cc2OCc2ccccc2)C(=O)C2CCCCC2)c1 [Compound 163] | very low biological activity |
| COC(=O)C=Cc1cccc(N(Cc2ccc(C=CC(=O)OC(C)(C)C)cc2OC(C)=O)C(=O)C2CCCCC2)c1 [Compound 164] | very low biological activity |
| COC(=O)C=Cc1cccc(N(Cc2ccc(C=CC(=O)OC(C)(C)C)cc2OC(=O)c2ccccc2)C(=O)C2CCCCC2)c1 [Compound 165] | very low biological activity |
| COC(=O)C=Cc1cccc(N(Cc2ccc(C=CC(=O)OC(C)(C)C)cc2OS(C)(=O)=O)C(=O)C2CCCCC2)c1 [Compound 166] | very low biological activity |
| CCOC(=O)COc1cc(C=CC(=O)OC(C)(C)C)ccc1CN(C(=O)C1CCCCC1)c1cccc(C=CC(=O)OC)c1 [Compound 167] | very low biological activity |
